HELM strings list residues between dots; [ac] is acetyl, [am] amide, other brackets name non-standard units.
Assay: general procedure: solution-phase peptide synthesis; pentafluorophenyl (OPfp) active esters
Settings: treated with Dowex 2x8 anion exchange resin of acetate cycle

Glu-Asp-Cys-Lys
step yield (coupling step): 81.3%

PEPTIDE1{E.D.[Cys(Acm)].K}$$$$V2.0
step yield (late stage modification step): 40.0%

PEPTIDE1{[Glp].E.D.[Cys(Acm)].K}$$$$V2.0
step yield (late stage modification step, run 1): 51.4% | step yield (late stage modification step, run 2): 58.8%
